According to paper PMC3538539, “Self-Interaction of Human Pex11pβ during Peroxisomal Growth and Division” (PLoS ONE, 2013):
Results are given in words; binding and its absence hold for the method and conditions named. For part of these data: Binding seen in cells or lysates may run through a third protein. Some results given as binding are weak or reduced against the parent protein; the word gives no strength. Sequences can lack the tags named with a protein.

Key:
Pex11pβ-Myc^A21P (human) = Pex11pβ-Myc^A21P (human) (UniProt O96011); experiment: cross-linking; COS-7 cells fixed with 4% para-formaldehyde 24 h after transfection, postfixation extraction with 0.2% Triton X-100 (or digitonin); extracts, pellets and unfixed lysates on SDS-PAGE, anti-Myc immunoblot
HsPex11pβ-Myc (human) = HsPex11pβ-Myc (human) (UniProt O96011); experiment: sucrose density gradient centrifugation; cells lysed with 1% digitonin without cross-linking; 10-47% sucrose step gradient with 0.1% digitonin, 3 h at 125,000 x g, 4°C, 12 fractions, anti-Myc immunoblot
Pex11pβΔN40-Myc (human) = Pex11pβΔN40-Myc (human) (UniProt O96011); experiment: cross-linking; COS-7 cells fixed with 4% para-formaldehyde 24 h after transfection, postfixation extraction with 0.2% Triton X-100 (or digitonin); extracts, pellets and unfixed lysates on SDS-PAGE, anti-Myc immunoblot

B1: Pex11pβ-Myc^A21P (protein, UniProt O96011 1-259)
chain: MDAWVRFSAQSQARERLCRAPQYACSLLGHALQRHGASPELQKQIRQLESHLSLGRKLLRLGNSADALESAKRAVHLSDVVLRFCITVSHLNRALYFACDNVLWAGKSGLAPRVDQEKWAQRSFRYYLFSLIMNLSRDAYEIRLLMEQESSACSRRLKGSGGGVPGGSETGGLGGPGTPGGGLPQLALKLRLQVLLLARVLRGHPPLLLDVVRNACDLFIPLDKLGLWRCGPGIVGLCGLVSSILSILTLIYPWLRLKP
binding (Pex11pβ-Myc^A21P (human)): binds weakly

B2: HsPex11pβ-Myc (natural protein, human, UniProt O96011 1-259, looked up)
chain: MDAWVRFSAQSQARERLCRAAQYACSLLGHALQRHGASPELQKQIRQLESHLSLGRKLLRLGNSADALESAKRAVHLSDVVLRFCITVSHLNRALYFACDNVLWAGKSGLAPRVDQEKWAQRSFRYYLFSLIMNLSRDAYEIRLLMEQESSACSRRLKGSGGGVPGGSETGGLGGPGTPGGGLPQLALKLRLQVLLLARVLRGHPPLLLDVVRNACDLFIPLDKLGLWRCGPGIVGLCGLVSSILSILTLIYPWLRLKP
notes: human Pex11pβ (HsPex11pβ), peroxisomal membrane protein 11B; also called Pex11pβ-Myc (WT); wild type Pex11pβ-Myc; source: COS-7, transfected; cross-linked in cells, then in detergent extract or lysate; not shown: Myc, C-terminal, kept
binding (HsPex11pβ-Myc (human)): binds

B3: Pex11pβΔN40-Myc (domain or fragment, UniProt O96011 41-259)
chain: LQKQIRQLESHLSLGRKLLRLGNSADALESAKRAVHLSDVVLRFCITVSHLNRALYFACDNVLWAGKSGLAPRVDQEKWAQRSFRYYLFSLIMNLSRDAYEIRLLMEQESSACSRRLKGSGGGVPGGSETGGLGGPGTPGGGLPQLALKLRLQVLLLARVLRGHPPLLLDVVRNACDLFIPLDKLGLWRCGPGIVGLCGLVSSILSILTLIYPWLRLKP
binding (Pex11pβΔN40-Myc (human)): no binding
